Laboratory results published in article PMC9629621.
Substitutions are numbered along the chain they refer to. Results are given in words; binding and its absence hold for the method and conditions named. In cells and extracts the contact can be indirect. Some entries that bind do so weakly or less than the wild type.

Chains of the proteins cited; added tags and fusions are not shown.
UniProt P10591: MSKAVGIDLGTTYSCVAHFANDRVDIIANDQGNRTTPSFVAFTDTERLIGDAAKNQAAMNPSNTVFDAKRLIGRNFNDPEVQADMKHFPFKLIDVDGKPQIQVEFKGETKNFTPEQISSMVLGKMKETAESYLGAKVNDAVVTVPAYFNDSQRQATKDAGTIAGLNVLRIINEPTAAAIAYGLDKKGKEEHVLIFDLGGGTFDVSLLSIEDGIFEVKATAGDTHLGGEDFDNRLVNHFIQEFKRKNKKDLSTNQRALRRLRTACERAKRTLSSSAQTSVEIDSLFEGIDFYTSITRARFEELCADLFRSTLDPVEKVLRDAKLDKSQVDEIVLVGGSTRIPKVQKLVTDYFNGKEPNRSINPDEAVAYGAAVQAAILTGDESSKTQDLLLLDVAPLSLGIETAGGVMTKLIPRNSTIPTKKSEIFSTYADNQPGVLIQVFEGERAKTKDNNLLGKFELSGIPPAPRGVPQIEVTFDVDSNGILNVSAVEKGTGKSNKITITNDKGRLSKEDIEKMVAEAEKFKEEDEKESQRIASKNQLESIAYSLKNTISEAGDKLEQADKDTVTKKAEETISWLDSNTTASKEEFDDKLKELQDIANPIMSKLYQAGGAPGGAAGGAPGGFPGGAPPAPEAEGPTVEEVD

What was measured:
[1] = biological target: T1, Pim1 S974A (S. cerevisiae) (UniProt P36775); experiment: co-IP; yeast extract (200 ug) on anti-GFP magnetic beads (GFP-TRAP), 4°C overnight; 50 mM Na-phosphate pH 8.0, 300 mM NaCl, 0.01% Tween-20; western blot
T1 sequence: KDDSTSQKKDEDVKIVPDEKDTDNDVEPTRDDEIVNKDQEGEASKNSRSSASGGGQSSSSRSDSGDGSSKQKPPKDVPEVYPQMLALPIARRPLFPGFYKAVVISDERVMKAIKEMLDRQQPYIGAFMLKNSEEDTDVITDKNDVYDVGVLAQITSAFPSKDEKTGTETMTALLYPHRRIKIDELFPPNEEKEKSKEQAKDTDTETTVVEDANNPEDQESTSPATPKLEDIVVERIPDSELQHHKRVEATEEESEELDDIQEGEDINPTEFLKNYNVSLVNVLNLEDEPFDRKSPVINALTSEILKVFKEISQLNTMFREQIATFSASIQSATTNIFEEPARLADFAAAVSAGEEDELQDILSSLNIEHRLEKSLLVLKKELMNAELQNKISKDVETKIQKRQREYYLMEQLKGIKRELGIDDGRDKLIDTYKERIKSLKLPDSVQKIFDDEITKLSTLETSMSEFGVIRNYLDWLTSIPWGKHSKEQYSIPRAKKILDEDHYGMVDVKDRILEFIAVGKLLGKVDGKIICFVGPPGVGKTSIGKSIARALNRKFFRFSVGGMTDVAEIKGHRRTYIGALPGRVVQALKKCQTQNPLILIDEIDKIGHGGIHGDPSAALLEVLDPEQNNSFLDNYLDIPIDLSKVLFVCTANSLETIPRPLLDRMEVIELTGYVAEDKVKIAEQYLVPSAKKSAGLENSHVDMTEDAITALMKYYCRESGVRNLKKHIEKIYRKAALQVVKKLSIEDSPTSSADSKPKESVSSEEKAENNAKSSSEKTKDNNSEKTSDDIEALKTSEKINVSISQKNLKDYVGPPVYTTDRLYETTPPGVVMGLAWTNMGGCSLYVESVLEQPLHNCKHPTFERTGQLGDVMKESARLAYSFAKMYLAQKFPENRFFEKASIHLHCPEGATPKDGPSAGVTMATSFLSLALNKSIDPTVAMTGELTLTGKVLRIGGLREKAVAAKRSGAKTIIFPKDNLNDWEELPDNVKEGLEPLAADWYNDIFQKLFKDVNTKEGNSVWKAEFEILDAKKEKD

[2] = biological target: T2, Pim1 S974D (S. cerevisiae) (UniProt P36775); experiment: as above
T2 sequence: T1 sequence with A876D

Ssa1 (endogenous, detected with anti-Ssa1) (from UniProt P10591 1-642)
binding [1]: binds | binding [2]: binds
